The source of these data is patent publication US12030888B2 (priority 2021, dated 2024).

The subject of one series is B. subtilis (ATCC 6633). In words: Confocal fluorescence microscopy of TAMRA-himastatin localization. The format is cell-based, Bacillus subtilis. To be noted: 8 or 16 μg/mL, 30 min.
Series [1] can be described thus: general procedure: hybrid (solid and solution phase) peptide synthesis; 2-chlorotrityl chloride polystyrene resin (200-400 mesh), Fmoc-D-Thr(t-Bu) loaded, 0.802 mmol/g; HATU. The settings on record: for conjugation yield: conjugation step; for isolated mass / isolated yield: whole synthesis; for isolated mass: scale 0.187 mmol; for isolated yield: scale of the general procedure 0.400 mmol.

Consider `CC(C)C[C@@H]1NC(=O)[C@H]2C[C@@H](O)CNN2C(=O)[C@H](C(C)C)OC(=O)[C@@H](C(C)C)NC(=O)[C@@H]2C[C@@]3(O)c4cc(-c5ccc6c(c5)[C@]5(O)C[C@H]7C(=O)N[C@H](C(C)C)C(=O)O[C@@H](C(C)C)C(=O)N8NC[C@H](O)C[C@@H]8C(=O)N[C@@H](CCCCNC(=O)c8ccc9c(c8)C(=O)OC98c9ccc(N(C)C)cc9Oc9cc(N(C)C)ccc98)C(=O)N[C@H]([C@H](C)O)C(=O)N7[C@@H]5N6)ccc4N[C@H]3N2C(=O)[C@@H]([C@H](C)O)NC1=O` [(−)-25, TAMRA Himastatin Heterodimer], for which the figures for the “cellular localization of fluorescent probe” value with B. subtilis (ATCC 6633) and in the series with B. subtilis (ATCC 6633) (listed as TAMRA-himastatin (−)-25) were “intense septal staining” and “substantial accumulation in the bacterial envelope”, respectively.
In turn, Ent-Himastatin displayed a conjugation yield in series [1] of 5%.
Take TAMRA Himastatin Homodimer (−)-S17: the conjugation yield in series [1] amounted to 9%.
On to hexapeptide S5, for which, in series [1], the isolated mass came out at 94.4 mg and the isolated yield is 37.6%.
In series [1], hexapeptide S11 returned an isolated mass of 94.4 mg and an isolated yield of 38%.
